Experimental findings from patent US6334944B1, “Process for producing an amino acid-N,N-diacetic acid and its salts” (Showa Denko K.K., priority 1998, dated 2002) are described below.

The test system of this data set is activated sludge. The data set is described as follows: Biodegradability test in compact aeration type activated sludger. Particulars: sample diluted to COD 500 ppm, activated sludge seed, 7 days.

On to “calcium disodium glutamic acid-N,N-diacetate [Example 13]”, for which the “Decomposition Rate (%)” value is on record as 100%. To `O=C([O-])CN(CCN(CC(=O)[O-])CC(=O)[O-])CC(=O)[O-].[Fe+3].[NH4+]` [ammonium ferric ethylenediaminetetraacetate, reference compound] belongs 0%.
